Laboratory results from the supplement of paper PMC10849652.
Some of the results follow. Residues, ends and D or L forms follow the SMILES beside them. *: point of attachment. Cbz = O=C(OCc1ccccc1)*

Chains of the proteins cited; added tags and fusions are not shown. Lines headed by an entry give the natural chain unless they say otherwise; changes in a name come on top.
UniProt P46527, whole entry, looked up: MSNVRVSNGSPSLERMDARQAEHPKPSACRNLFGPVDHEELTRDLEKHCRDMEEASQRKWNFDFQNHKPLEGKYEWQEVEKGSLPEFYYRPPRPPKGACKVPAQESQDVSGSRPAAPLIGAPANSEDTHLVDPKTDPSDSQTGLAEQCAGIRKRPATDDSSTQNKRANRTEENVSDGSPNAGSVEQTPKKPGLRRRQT
UniProt Q92903: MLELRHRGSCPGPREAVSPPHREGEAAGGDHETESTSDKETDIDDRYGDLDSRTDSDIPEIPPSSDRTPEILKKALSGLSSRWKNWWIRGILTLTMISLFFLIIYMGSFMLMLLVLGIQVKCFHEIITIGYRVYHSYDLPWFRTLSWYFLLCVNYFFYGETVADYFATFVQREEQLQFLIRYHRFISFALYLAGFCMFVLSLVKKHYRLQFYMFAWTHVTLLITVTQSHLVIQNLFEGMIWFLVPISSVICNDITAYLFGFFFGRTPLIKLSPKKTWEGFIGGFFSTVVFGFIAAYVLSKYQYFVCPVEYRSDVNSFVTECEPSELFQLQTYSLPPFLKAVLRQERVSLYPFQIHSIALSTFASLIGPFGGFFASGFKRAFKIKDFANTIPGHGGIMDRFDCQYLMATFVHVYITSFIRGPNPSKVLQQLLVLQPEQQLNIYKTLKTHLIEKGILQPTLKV
UniProt Q7L2Z9: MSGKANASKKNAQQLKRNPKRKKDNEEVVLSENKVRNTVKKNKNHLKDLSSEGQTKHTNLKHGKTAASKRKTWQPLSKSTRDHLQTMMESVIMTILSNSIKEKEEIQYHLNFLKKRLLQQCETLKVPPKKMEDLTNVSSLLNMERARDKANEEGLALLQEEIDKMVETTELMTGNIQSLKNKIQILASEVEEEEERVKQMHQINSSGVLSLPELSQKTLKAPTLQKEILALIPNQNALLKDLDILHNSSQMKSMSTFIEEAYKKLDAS
UniProt Q02224: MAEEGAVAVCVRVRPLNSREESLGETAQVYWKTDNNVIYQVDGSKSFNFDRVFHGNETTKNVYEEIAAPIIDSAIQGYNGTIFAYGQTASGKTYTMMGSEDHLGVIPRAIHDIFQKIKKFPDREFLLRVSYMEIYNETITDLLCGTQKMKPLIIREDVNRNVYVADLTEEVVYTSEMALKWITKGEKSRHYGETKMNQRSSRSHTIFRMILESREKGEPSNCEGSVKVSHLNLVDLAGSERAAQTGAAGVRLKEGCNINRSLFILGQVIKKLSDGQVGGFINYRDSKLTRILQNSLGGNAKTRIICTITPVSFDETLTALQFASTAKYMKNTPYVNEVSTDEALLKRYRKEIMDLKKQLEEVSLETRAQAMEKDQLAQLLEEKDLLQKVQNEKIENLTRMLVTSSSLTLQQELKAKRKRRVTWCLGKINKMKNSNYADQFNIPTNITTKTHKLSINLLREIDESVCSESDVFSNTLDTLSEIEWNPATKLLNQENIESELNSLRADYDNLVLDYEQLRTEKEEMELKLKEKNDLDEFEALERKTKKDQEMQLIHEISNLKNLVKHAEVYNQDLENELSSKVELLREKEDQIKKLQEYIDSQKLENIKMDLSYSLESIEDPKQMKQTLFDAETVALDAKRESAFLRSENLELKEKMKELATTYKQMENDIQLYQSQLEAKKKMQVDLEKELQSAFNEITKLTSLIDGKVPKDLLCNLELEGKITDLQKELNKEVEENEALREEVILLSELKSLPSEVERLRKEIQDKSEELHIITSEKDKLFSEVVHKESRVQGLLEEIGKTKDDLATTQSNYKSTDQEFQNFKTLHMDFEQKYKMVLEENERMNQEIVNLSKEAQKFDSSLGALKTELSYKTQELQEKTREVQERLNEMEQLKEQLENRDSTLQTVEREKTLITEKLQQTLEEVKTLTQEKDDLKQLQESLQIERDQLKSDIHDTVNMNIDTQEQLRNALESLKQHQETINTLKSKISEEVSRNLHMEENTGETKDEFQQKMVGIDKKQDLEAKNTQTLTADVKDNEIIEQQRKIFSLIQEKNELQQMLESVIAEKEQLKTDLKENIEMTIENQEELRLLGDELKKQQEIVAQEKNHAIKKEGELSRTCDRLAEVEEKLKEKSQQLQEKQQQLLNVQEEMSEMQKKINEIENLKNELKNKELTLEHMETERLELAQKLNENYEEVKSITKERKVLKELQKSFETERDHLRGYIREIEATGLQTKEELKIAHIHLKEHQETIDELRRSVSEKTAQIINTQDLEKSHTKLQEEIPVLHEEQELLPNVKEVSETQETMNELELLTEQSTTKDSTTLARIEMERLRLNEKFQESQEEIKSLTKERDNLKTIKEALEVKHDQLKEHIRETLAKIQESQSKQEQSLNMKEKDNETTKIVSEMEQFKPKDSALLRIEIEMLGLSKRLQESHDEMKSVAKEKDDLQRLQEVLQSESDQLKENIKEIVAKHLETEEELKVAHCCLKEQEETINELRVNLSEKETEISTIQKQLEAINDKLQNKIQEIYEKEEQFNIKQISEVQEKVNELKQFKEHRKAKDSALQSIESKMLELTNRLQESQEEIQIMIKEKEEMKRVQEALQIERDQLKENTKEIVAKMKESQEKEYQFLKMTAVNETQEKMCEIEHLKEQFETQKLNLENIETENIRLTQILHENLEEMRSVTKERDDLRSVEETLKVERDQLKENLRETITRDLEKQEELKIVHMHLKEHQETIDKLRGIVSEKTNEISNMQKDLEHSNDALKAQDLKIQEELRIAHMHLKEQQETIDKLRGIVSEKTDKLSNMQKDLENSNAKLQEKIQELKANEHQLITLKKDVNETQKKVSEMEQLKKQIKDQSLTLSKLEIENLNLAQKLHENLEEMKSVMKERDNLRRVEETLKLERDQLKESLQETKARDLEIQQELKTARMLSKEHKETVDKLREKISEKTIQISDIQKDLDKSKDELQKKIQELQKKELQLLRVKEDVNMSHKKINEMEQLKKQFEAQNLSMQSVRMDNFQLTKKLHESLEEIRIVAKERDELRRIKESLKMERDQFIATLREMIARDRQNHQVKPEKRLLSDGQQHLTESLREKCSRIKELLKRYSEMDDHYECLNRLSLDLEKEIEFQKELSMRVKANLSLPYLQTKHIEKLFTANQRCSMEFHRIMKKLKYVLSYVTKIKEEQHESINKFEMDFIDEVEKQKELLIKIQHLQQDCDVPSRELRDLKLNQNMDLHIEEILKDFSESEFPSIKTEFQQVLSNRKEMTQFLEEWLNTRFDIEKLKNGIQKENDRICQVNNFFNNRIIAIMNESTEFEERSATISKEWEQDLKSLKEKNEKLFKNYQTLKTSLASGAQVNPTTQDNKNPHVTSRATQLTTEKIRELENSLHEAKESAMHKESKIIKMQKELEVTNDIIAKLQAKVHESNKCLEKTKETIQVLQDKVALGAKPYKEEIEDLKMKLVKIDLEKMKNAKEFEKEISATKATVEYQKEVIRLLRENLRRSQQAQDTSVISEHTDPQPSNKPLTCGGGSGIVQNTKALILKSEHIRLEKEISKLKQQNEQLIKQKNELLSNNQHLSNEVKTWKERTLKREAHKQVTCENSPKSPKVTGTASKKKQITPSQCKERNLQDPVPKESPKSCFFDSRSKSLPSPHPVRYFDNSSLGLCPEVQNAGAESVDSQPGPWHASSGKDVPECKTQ
UniProt Q8IW35: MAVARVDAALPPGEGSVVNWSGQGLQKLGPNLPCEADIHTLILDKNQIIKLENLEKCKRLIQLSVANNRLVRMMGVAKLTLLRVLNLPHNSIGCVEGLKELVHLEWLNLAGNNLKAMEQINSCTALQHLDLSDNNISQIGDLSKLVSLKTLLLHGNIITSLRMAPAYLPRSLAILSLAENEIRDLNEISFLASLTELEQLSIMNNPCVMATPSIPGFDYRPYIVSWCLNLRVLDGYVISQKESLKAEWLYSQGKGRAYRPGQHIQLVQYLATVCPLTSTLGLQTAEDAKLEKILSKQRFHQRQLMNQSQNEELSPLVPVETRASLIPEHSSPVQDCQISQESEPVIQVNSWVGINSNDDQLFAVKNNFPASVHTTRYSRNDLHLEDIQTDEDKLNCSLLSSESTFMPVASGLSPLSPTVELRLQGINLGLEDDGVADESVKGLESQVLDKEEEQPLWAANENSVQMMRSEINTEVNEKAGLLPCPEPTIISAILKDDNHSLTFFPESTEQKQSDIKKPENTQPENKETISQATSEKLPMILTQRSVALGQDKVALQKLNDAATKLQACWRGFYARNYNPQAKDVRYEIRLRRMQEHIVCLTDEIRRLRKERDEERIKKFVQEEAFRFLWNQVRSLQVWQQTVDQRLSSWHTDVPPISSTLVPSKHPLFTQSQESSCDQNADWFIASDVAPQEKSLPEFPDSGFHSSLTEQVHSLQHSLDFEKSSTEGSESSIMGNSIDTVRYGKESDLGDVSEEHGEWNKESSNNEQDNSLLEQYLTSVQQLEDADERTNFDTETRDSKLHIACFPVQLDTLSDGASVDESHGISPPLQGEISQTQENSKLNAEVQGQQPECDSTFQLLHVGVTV
UniProt Q9H3Q1: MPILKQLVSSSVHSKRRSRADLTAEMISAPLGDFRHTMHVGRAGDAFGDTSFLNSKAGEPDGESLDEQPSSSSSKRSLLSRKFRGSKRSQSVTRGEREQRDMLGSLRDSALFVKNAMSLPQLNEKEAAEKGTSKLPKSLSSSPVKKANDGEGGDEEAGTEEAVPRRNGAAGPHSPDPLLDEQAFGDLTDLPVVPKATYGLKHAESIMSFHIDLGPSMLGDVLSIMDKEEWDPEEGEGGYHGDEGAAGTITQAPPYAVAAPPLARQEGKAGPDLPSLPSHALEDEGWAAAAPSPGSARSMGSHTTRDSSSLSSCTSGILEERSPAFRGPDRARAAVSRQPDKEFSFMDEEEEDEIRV

Tests used:
Experiment in all cases: log2 fold change, soluble protein after heating vs DMSO (PISA); higher = thermal stabilisation; K562 cells, 10 uM, 30 min; active = over 0.2 and 3.5 SD of the protein, either way, in both replicates (recomputed)
erlotinib = compound: C#Cc1cccc(Nc2ncnc3cc(OCCOC)c(OCCOC)cc23)c1 [erlotinib]
Method in brief: (§1)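 K562 cells at 2×10^6 cells/mL were treated for 30 min with 10 μM compound, and aliquots were heated for 3 min over 48°C-58°C before pooling. Extraction used PBS with 0.5% NP-40 at 4°C, and soluble protein was the supernatant after 21,000xg for 90 min, measured by TMTpro 16plex LC-MS/MS with channel sums equalised. Thermal stability values, relative to control samples and from duplicates, are log2 fold changes.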

[1] = compound: C/C(=N\NC(=O)C1=CC(=CC=C1)S(=O)(=O)N2CCOCC2)/C3=C(C=CC(=C3)Cl)O
Method in brief: as §1

[2] = compound: C1=CC(=C(C=C1Cl)C2=NC3=NC=CN=C3C(=N2)NC4=CC=NC=C4)F
Method in brief: as §1

[3] = compound: C1=CC(=CC=C1C2=NC3=C(N2)C=C(C=C3)C(=O)N)OC4=CC=C(C=C4)Cl
Method in brief: as §1

[4] = compound: C1=CC2=C(C=CC(=C2)/C=C\3/C(=O)NC(=NCC4=CC=CS4)S3)N=C1
Method in brief: as §1

[5] = compound: C1=CC2=NC=CN=C2C=C1/C=C/3\C(=O)NC(=O)S3
Method in brief: as §1

[6] = compound: C1=CC=C(C=C1)C2=NC(=C(N2)C3=CC=NC=C3)C4=CC(=C(C=C4)Cl)O
Method in brief: as §1

[7] = compound: C1=CC=C2C(=C1)C3=NNC4=CC=CC(=C43)C2=O
Method in brief: as §1

IRAK-1-4 Inhibitor I = compound: C1COCCN1CCN2C3=CC=CC=C3N=C2NC(=O)C4=CC(=CC=C4)[N+](=O)[O-] [IRAK-1-4 Inhibitor I]
Method in brief: as §1

ibrutinib = compound: C=CC(=O)N1CCC[C@@H](n2nc(-c3ccc(Oc4ccccc4)cc3)c3c(N)ncnc32)C1 [ibrutinib]
Method in brief: as §1

[8] = compound: CC(=O)c1cnc2ccc(-c3cc(Cl)c(O)c(Cl)c3)nc2c1N[C@H]1CC[C@H](CN(C)C)CC1
Method in brief: as §1

ralimetinib = compound: CC(C)(C)Cn1c(N)nc2ccc(-c3[nH]c(C(C)(C)C)nc3-c3ccc(F)cc3)nc21 [ralimetinib]
Method in brief: as §1

[9] = compound: CC(C)(O)CC(=O)NCCn1ccc2ncnc(Nc3ccc(Oc4cccc(C(F)(F)F)c4)c(Cl)c3)c21
Method in brief: as §1

[10] = compound: CC(C)C1=C2N=C(C=C(N2N=C1)NCC3=CC=CC=C3)NCCCCCCN
Method in brief: as §1

[11] = compound: CC(C)C[C@@H](C=O)NC(=O)[C@H](CC(C)C)NC(=O)[C@H](CC(C)C)NC(=O)OCc1ccccc1
Method in brief: as §1

pinometostat = compound: CC(C)N(C[C@H]1O[C@@H](n2cnc3c(N)ncnc32)[C@H](O)[C@@H]1O)[C@H]1C[C@@H](CCc2nc3cc(C(C)(C)C)ccc3[nH]2)C1 [pinometostat]
Method in brief: as §1

[12] = compound: C1CCN(C1)C(=O)NC2=CC=CC(=C2)NC3=NC=C(C(=N3)NCCC4=CN=CN4)Br
Method in brief: as §1

[13] = compound: C1CN(CCC1(CC2=CC=C(C=C2)Cl)N)C3=NC=NC4=C3C=CN4
Method in brief: as §1

[14] = compound: CC1=C(C(CC(=O)N1)C2=CC=C(C=C2)C(F)(F)F)C(=O)NC3=C(C=C4C(=C3)C=NN4)F
Method in brief: as §1

[15] = compound: CC1=C(C2=C(C=C1)C(=O)C3=CC=CC=C3N2CCCN)C
Method in brief: as §1

Measured: log2 fold change

CDKN1B (UniProt P46527)
active: [11] 0.536
inactive: erlotinib -0.076 | [1] 0.027 | [2] -0.133 | [3] 0.064 | [4] -0.217 | [5] -0.049 | [6] -0.1 | [7] -0.01 | IRAK-1-4 Inhibitor I 0.023 | ibrutinib 0.015 | [8] 0.173 | ralimetinib -0.024 | [9] 0.012 | [10] 0.215 | pinometostat -0.023

CDS1 (UniProt Q92903)
inactive: erlotinib 0.001 | [2] -0.129 | [3] 0.04 | [5] 0.045 | ibrutinib -0.078 | [9] 0.061 | [10] -0.017

CENPQ (UniProt Q7L2Z9)
inactive: erlotinib -0.137 | [2] 0.009 | [3] -0.124 | [12] 0.052 | [13] 0.057 | [9] -0.113 | [10] -0.02 | [14] 0.024 | [15] 0.024

CENPE (UniProt Q02224)
inactive: erlotinib 0.268 | [1] 0.525 | [3] -0.096 | [5] 0.098 | [6] 0.072 | [7] 0.444 | [12] 0.011 | [13] 0.032 | IRAK-1-4 Inhibitor I 0.046 | ibrutinib -0.184 | [8] 0.431 | ralimetinib 0.119 | [10] 0.211 | [11] 0.11 | pinometostat -0.002 | [15] 0.101
active: [4] -0.875

CEP97 isoform 2 (UniProt Q8IW35)
inactive: erlotinib 0.046 | [1] -0.043 | [2] -0.059 | [3] 0.008 | [4] 0.059 | [6] 0.028 | [7] -0.01 | [12] 0.072 | [13] 0.031 | IRAK-1-4 Inhibitor I 0.025 | [8] 0.075 | ralimetinib 0.039 | [9] 0.082 | [10] 0.003 | [11] 0.033 | pinometostat 0.164 | [14] -0.293 | [15] 0.037

CDC42EP4 (UniProt Q9H3Q1)
inactive: erlotinib 0.062 | [2] 0.02 | [3] 0.014 | [5] 0.043 | [6] -0.067 | [12] 0.027 | [13] 0.098 | ibrutinib 0.016 | ralimetinib 0.021 | [9] 0.006 | [10] 0 | [11] 0.049 | [14] 0.069 | [15] -0.113
